Measured values reported in ChEMBL document CHEMBL5674883, “The Heterochromatin Landscape in Migrating Cells and the Importance of H3K27me3 for Associated Transcriptome Alterations” (Cells, 2018).
Further values from the same series stand in other lists.

By UniProt entry, the sequences of proteins in these tests, tags left out.
UniProt Q61188, whole entry: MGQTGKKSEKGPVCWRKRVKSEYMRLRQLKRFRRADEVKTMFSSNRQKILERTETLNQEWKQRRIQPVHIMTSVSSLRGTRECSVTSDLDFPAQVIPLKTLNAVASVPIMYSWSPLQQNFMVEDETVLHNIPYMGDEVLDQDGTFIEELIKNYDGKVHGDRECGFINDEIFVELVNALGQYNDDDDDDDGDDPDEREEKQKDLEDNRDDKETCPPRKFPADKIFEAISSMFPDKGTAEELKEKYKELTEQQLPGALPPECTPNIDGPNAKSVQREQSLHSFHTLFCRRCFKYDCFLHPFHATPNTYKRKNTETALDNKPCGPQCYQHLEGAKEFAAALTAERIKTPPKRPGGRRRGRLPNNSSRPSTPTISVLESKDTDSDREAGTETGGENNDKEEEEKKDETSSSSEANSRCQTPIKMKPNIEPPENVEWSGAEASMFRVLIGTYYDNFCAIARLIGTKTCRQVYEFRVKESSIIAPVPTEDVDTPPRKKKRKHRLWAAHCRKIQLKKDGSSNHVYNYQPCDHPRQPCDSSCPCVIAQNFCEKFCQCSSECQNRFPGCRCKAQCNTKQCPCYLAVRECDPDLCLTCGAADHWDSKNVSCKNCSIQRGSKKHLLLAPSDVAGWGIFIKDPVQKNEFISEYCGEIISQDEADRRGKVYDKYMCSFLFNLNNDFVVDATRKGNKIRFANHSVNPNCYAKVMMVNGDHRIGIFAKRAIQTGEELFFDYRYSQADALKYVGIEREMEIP

Columns and labels:
Assay type in all cases: cell-based
[1] = biological target: T1, RNA polymerase II (Mus musculus) (UniProt P08775+Q8CFI7+P97760+A0A3Q4L2S8+Q80UW8+P61219+P62488+Q923G2+P60898+O08740+Q63871+P62876); test: Inhibition of RNA polymerase II in mouse B16-F1 migrating cells assessed as fold change in Dnm1-RNA stability at 0.1 mM measured by ChIP-seq analysis relative to control cells
[2] = biological target: T1, RNA polymerase II (Mus musculus); test: Inhibition of RNA polymerase II in mouse B16-F1 migrating cells assessed as fold change in Rnf126-RNA stability at 0.1 mM measured by ChIP-seq analysis relative to control cells
[3] = biological target: T1, RNA polymerase II (Mus musculus); test: Inhibition of RNA polymerase II in mouse B16-F1 migrating cells assessed as fold change in Coa3-RNA stability at 0.1 mM measured by ChIP-seq analysis relative to control cells
[4] = biological target: T1, RNA polymerase II (Mus musculus); test: Inhibition of RNA polymerase II in mouse B16-F1 migrating cells assessed as fold change in Dtnbp1-RNA stability at 0.1 mM measured by ChIP-seq analysis relative to control cells
[5] = biological target: T1, RNA polymerase II (Mus musculus); test: Inhibition of RNA polymerase II in mouse B16-F1 migrating cells assessed as fold change in Tax1bp3-RNA stability at 0.1 mM measured by ChIP-seq analysis relative to control cells
[6] = biological target: T1, RNA polymerase II (Mus musculus); test: Inhibition of RNA polymerase II in mouse B16-F1 migrating cells assessed as fold change in Atp6v0b-RNA stability at 0.1 mM measured by ChIP-seq analysis relative to control cells
[7] = biological target: T1, RNA polymerase II (Mus musculus); test: Inhibition of RNA polymerase II in mouse B16-F1 migrating cells assessed as fold change in Ermp1-RNA stability at 0.1 mM measured by ChIP-seq analysis relative to control cells
[8] = biological target: T1, RNA polymerase II (Mus musculus); test: Inhibition of RNA polymerase II in mouse B16-F1 migrating cells assessed as fold change in Arih1-RNA stability at 0.1 mM measured by ChIP-seq analysis relative to control cells
[9] = biological target: T1, RNA polymerase II (Mus musculus); test: Inhibition of RNA polymerase II in mouse B16-F1 migrating cells assessed as fold change in Ncapg-RNA stability at 0.1 mM measured by ChIP-seq analysis relative to control cells
[10] = biological target: T1, RNA polymerase II (Mus musculus); test: Inhibition of RNA polymerase II in mouse B16-F1 migrating cells assessed as fold change in Nup50-RNA stability at 0.1 mM measured by ChIP-seq analysis relative to control cells
[11] = biological target: T1, RNA polymerase II (Mus musculus); test: Inhibition of RNA polymerase II in mouse B16-F1 migrating cells assessed as fold change in Kansl1-RNA stability at 0.1 mM measured by ChIP-seq analysis relative to control cells
[12] = biological target: T1, RNA polymerase II (Mus musculus); test: Inhibition of RNA polymerase II in mouse B16-F1 migrating cells assessed as fold change in Sesn2-RNA stability at 0.1 mM measured by ChIP-seq analysis relative to control cells
[13] = biological target: T1, RNA polymerase II (Mus musculus); test: Inhibition of RNA polymerase II in mouse B16-F1 migrating cells assessed as fold change in Arhgap5-RNA stability at 0.1 mM measured by ChIP-seq analysis relative to control cells
[14] = biological target: T1, RNA polymerase II (Mus musculus); test: Inhibition of RNA polymerase II in mouse B16-F1 migrating cells assessed as fold change in Gabpa-RNA stability at 0.1 mM measured by ChIP-seq analysis relative to control cells
[15] = biological target: T1, RNA polymerase II (Mus musculus); test: Inhibition of RNA polymerase II in mouse B16-F1 migrating cells assessed as fold change in Pcf11-RNA stability at 0.1 mM measured by ChIP-seq analysis relative to control cells
[16] = biological target: T1, RNA polymerase II (Mus musculus); test: Inhibition of RNA polymerase II in mouse B16-F1 migrating cells assessed as fold change in Mphosph8-RNA stability at 0.1 mM measured by ChIP-seq analysis relative to control cells
[17] = biological target: T1, RNA polymerase II (Mus musculus); test: Inhibition of RNA polymerase II in mouse B16-F1 migrating cells assessed as fold change in Med18-RNA stability at 0.1 mM measured by ChIP-seq analysis relative to control cells
[18] = biological target: Histone-lysine N-methyltransferase EZH2 (Mus musculus) (UniProt Q61188); test: Inhibition of EZH2 in mouse B16-F1 migrating cells assessed as fold change in H3K27me3-dependent regulated Plaur-mRNA expression at 3 uM measured by ChIP-seq analysis relative to control cells
[19] = biological target: Histone-lysine N-methyltransferase EZH2 (Mus musculus) (UniProt Q61188); test: Inhibition of EZH2 in mouse B16-F1 migrating cells assessed as fold change in H3K27me3-dependent regulated Rassf7-mRNA expression at 3 uM measured by ChIP-seq analysis relative to control cells
[20] = biological target: Histone-lysine N-methyltransferase EZH2 (Mus musculus) (UniProt Q61188); test: Inhibition of EZH2 in mouse B16-F1 migrating cells assessed as fold change in H3K27me3-independent regulated Gm3839-mRNA expression at 3 uM measured by ChIP-seq analysis relative to control cells
[21] = biological target: Histone-lysine N-methyltransferase EZH2 (Mus musculus) (UniProt Q61188); test: Inhibition of EZH2 in mouse B16-F1 migrating cells assessed as fold change in H3K27me3-buffered regulated Gm36401-mRNA expression at 3 uM measured by ChIP-seq analysis relative to control cells
[22] = biological target: Histone-lysine N-methyltransferase EZH2 (Mus musculus) (UniProt Q61188); test: Inhibition of EZH2 in mouse B16-F1 migrating cells assessed as fold change in H3K27me3-buffered regulated Isoc2b-mRNA expression at 3 uM measured by ChIP-seq analysis relative to control cells
[23] = biological target: Histone-lysine N-methyltransferase EZH2 (Mus musculus) (UniProt Q61188); test: Inhibition of EZH2 in mouse B16-F1 migrating cells assessed as fold change in H3K27me3-buffered regulated Mxd3-mRNA expression at 3 uM measured by ChIP-seq analysis relative to control cells
[24] = biological target: Histone-lysine N-methyltransferase EZH2 (Mus musculus) (UniProt Q61188); test: Inhibition of EZH2 in mouse B16-F1 migrating cells assessed as fold change in H3K27me3-buffered regulated Rock1-mRNA expression at 3 uM measured by ChIP-seq analysis relative to control cells
[25] = biological target: Histone-lysine N-methyltransferase EZH2 (Mus musculus) (UniProt Q61188); test: Inhibition of EZH2 in mouse B16-F1 migrating cells assessed as fold change in H3K27me3-buffered regulated Hmga2-mRNA expression at 3 uM measured by ChIP-seq analysis relative to control cells
[26] = biological target: Histone-lysine N-methyltransferase EZH2 (Mus musculus) (UniProt Q61188); test: Inhibition of EZH2 in mouse B16-F1 migrating cells assessed as fold change in H3K27me3-buffered regulated Kif18a-mRNA expression at 3 uM measured by ChIP-seq analysis relative to control cells
[27] = biological target: Histone-lysine N-methyltransferase EZH2 (Mus musculus) (UniProt Q61188); test: Inhibition of EZH2 in mouse B16-F1 migrating cells assessed as fold change in H3K27me3-buffered regulated Ifit2-mRNA expression at 3 uM measured by ChIP-seq analysis relative to control cells
[28] = biological target: Histone-lysine N-methyltransferase EZH2 (Mus musculus) (UniProt Q61188); test: Inhibition of EZH2 in mouse B16-F1 migrating cells assessed as fold change in H3K27me3-buffered regulated Ahdc1-mRNA expression at 3 uM measured by ChIP-seq analysis relative to control cells
[29] = biological target: Histone-lysine N-methyltransferase EZH2 (Mus musculus) (UniProt Q61188); test: Inhibition of EZH2 in mouse B16-F1 migrating cells assessed as fold change in H3K27me3-buffered regulated Rgs16-mRNA expression at 3 uM measured by ChIP-seq analysis relative to control cells
[30] = biological target: Histone-lysine N-methyltransferase EZH2 (Mus musculus) (UniProt Q61188); test: Inhibition of EZH2 in mouse B16-F1 migrating cells assessed as fold change in H3K27me3-buffered regulated Gm45546-mRNA expression at 3 uM measured by ChIP-seq analysis relative to control cells

Question: With `OC[C@H]1O[C@@H](n2cnc3cc(Cl)c(Cl)cc32)[C@H](O)[C@@H]1O` as the compound, how does the log2FC [1] read?
Answer: 0.7

Question: What about the log2FC [2] of the same compound?
Answer: 0.67

Question: What about the log2FC [3] of the same compound?
Answer: 0.44

Question: What about the log2FC [4] of the same compound?
Answer: 0.43

Question: What about the log2FC [5] of the same compound?
Answer: 0.42

Question: What about the log2FC [6] of the same compound?
Answer: 0.41

Question: What about the log2FC [7] of the same compound?
Answer: -0.4

Question: What about the log2FC [8] of the same compound?
Answer: -0.44

Question: And the log2FC [9]?
Answer: -0.47

Question: What about the log2FC [10] of the same compound?
Answer: -0.48

Question: What about the log2FC [11] of the same compound?
Answer: -0.56

Question: What about the log2FC [12] of the same compound?
Answer: -0.66

Question: What about the log2FC [13] of the same compound?
Answer: -0.7

Question: And the log2FC [14]?
Answer: -0.73

Question: What about the log2FC [15] of the same compound?
Answer: -0.73

Question: And the log2FC [16]?
Answer: -1.17

Question: And the log2FC [17]?
Answer: -1.78

Question: With `CCCc1cc(C)[nH]c(=O)c1CNC(=O)c1cc(-c2ccnc(N3CCN(C)CC3)c2)cc2c1cnn2C(C)C` as the compound, how does the log2FC [18] read?
Answer: 0.09

Question: What about the log2FC [19] of the same compound?
Answer: -0.48

Question: What about the log2FC [20] of the same compound?
Answer: 0.51

Question: And the log2FC [21]?
Answer: 0.6

Question: What about the log2FC [22] of the same compound?
Answer: 0.43

Question: What about the log2FC [23] of the same compound?
Answer: -0.42

Question: And the log2FC [24]?
Answer: -0.45

Question: What about the log2FC [25] of the same compound?
Answer: -0.56

Question: What about the log2FC [26] of the same compound?
Answer: -0.6

Question: And the log2FC [27]?
Answer: -0.66

Question: What about the log2FC [28] of the same compound?
Answer: -0.71

Question: What about the log2FC [29] of the same compound?
Answer: -1.06

Question: And the log2FC [30]?
Answer: -1.13
